{"source": "the supplement of paper PMC9135407", "system": "primary human hepatic stellate cells (donor 1)", "test": "percent Bodipy-positive cells; higher = more lipid droplet accumulation", "settings": "48 h", "key": {"[1]": {"settings": "library stock concentration: 3.33 mM"}, "[2]": {"settings": "library stock concentration: 10 mM"}, "[3]": {"settings": "library stock concentration: 1 mM"}, "[4]": {"settings": "library stock concentration: 80 uM"}, "[5]": {"settings": "library stock concentration: 400 uM"}, "[6]": {"settings": "library stock concentration: 2 mM"}}, "note": "“And” between values parts separate entries of the source, which are not always exact repeats. Equal values may be shown once. Where a name gives a salt, the structure may show the parent alone. ± gives the standard deviation of the averaged measurements. The list shows a part of the results. Baselines shift from plate to plate; read single values as rough.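 Culture-activated primary human stellate myofibroblasts, where regained lipid droplets signal inactivation. Value: share of Hoechst-counted cells above a per-plate Bodipy cutoff, in duplicate wells, with DMSO negative and nortriptyline positive controls on each plate. Hits: a control-normalized score above the plate's top-tenth-percentile nortriptyline wells, or one of a plate's three best wells. Final well concentrations are not given.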", "data": [{"smiles": "C=C1C[C@]23C[C@@]1(O)CC[C@H]2[C@@]12C=C[C@H](O)[C@@](C)(C(=O)O1)[C@H]2[C@@H]3C(=O)O", "note": "[Gibberellic acid]", "values": [{"measurement": "percent Bodipy-positive cells", "value": "9.44 ± 0.2", "unit": "%"}]}, {"smiles": "CC1(C)S[C@@H]2[C@H](NC(=O)[C@H](NC(=O)N3CCN(S(C)(=O)=O)C3=O)c3ccccc3)C(=O)N2[C@H]1C(=O)O", "note": "[Mezlocillin Sodium]", "values": [{"measurement": "percent Bodipy-positive cells", "setting": "[1]", "value": "12.7 ± 0.22", "unit": "%"}, {"measurement": "percent Bodipy-positive cells", "setting": "[2]", "value": "24.8 ± 1.7", "unit": "%"}]}, {"smiles": "Cn1c(=O)cc(N2CCC[C@@H](N)C2)n(Cc2ccccc2C#N)c1=O", "note": "[Alogliptin]", "values": [{"measurement": "percent Bodipy-positive cells", "setting": "[1]", "value": "5.806 ± 0.052", "unit": "%"}, {"measurement": "percent Bodipy-positive cells", "setting": "[2]", "value": "19.7 ± 12", "unit": "%"}]}, {"smiles": "Cc1ccc(NC(=O)C(C)C)cc1C1CCN(Cc2ccc(Oc3ccc(F)c(F)c3)cc2)CC1.Cl", "values": [{"measurement": "percent Bodipy-positive cells", "setting": "[2]", "value": "79.8 ± 1.4", "unit": "%"}]}, {"smiles": "CN(C)CCC=C1c2ccccc2CCc2ccccc21.Cl", "note": "[Amitriptyline HCl]", "values": [{"measurement": "percent Bodipy-positive cells", "setting": "[2]", "value": "90.7 ± 1.8", "unit": "%"}]}, {"smiles": "O=C(Nc1ccc2c(c1)CCN(Cc1ncn[nH]1)C2)c1ccccc1-c1ccc(C(F)(F)F)cc1", "values": [{"measurement": "percent Bodipy-positive cells", "setting": "[2]", "value": "29.4 ± 14", "unit": "%"}]}, {"smiles": "N#Cc1cc([N+](=O)[O-])c2sc(C(N)=O)[n+]([O-])c2c1", "note": "[Polo-like Kinase Inhibitor II, BTO-1]", "values": [{"measurement": "percent Bodipy-positive cells", "setting": "[1]", "value": "10.5 ± 0.94", "unit": "%"}]}, {"smiles": "COc1cc(Nc2ncc(F)c(Nc3ccc4c(n3)N(COP(=O)(O)O)C(=O)C(C)(C)O4)n2)cc(OC)c1OC", "note": "[Fostamatinib (R788)]", "values": [{"measurement": "percent Bodipy-positive cells", "setting": "[1]", "value": "57.2 ± 5.9", "unit": "%"}]}, {"smiles": "COc1ccc(-c2cc(=O)c3c(O)cc(O[C@@H]4O[C@H](CO[C@@H]5O[C@@H](C)[C@H](O)[C@@H](O)[C@H]5O)[C@@H](O)[C@H](O)[C@H]4O)cc3o2)cc1O", "note": "[Diosmin]", "values": [{"measurement": "percent Bodipy-positive cells", "setting": "[1]", "value": "9.03 ± 5.4", "unit": "%"}]}, {"smiles": "CCCCCCCC/C=C\\CCCCCCCCCCCCCC(=O)N[C@@H](CO)[C@H](O)/C=C/CCCCCCCCCCCCC", "note": "[Nervonic Ceramide]", "values": [{"measurement": "percent Bodipy-positive cells", "setting": "[3]", "value": "8.32 ± 0.25", "unit": "%"}]}, {"smiles": "CN(C)CCC(c1ccc(Cl)cc1)c1ccccn1.O=C(O)/C=C\\C(=O)O", "note": "(configuration not stated)", "values": [{"measurement": "percent Bodipy-positive cells", "setting": "[2]", "value": "87.03 ± 0.49", "unit": "%"}]}, {"smiles": "CCOC(=O)c1ncc2[nH]c3cccc(OC(C)C)c3c2c1C", "values": [{"measurement": "percent Bodipy-positive cells", "setting": "[2]", "value": "10.9 ± 0.49", "unit": "%"}]}, {"smiles": "COC1=C2C[C@@H](C)C[C@H](OC)[C@H](O)[C@@H](C)/C=C(\\C)[C@H](OC(N)=O)[C@@H](OC)/C=C\\C=C(/C)C(=O)NC(=CC1=O)C2=O", "note": "[Geldanamycin]", "values": [{"measurement": "percent Bodipy-positive cells", "setting": "[1]", "value": "75.9 ± 1.6", "unit": "%"}, {"measurement": "percent Bodipy-positive cells", "setting": "library stock concentration: 8.9 mM", "value": "62 ± 7.7", "unit": "%"}, {"measurement": "percent Bodipy-positive cells", "setting": "[2]", "value": 100, "unit": "%"}]}, {"smiles": "CN1CC2c3ccccc3Oc3ccc(Cl)cc3C2C1", "note": "(configuration not stated) [Asenapine maleate]", "values": [{"measurement": "percent Bodipy-positive cells", "setting": "[2]", "value": "65.9 ± 19", "unit": "%"}]}, {"smiles": "CN1CC2c3ccccc3Oc3ccc(Cl)cc3C2C1", "note": "(configuration not stated) [Asenapine]", "values": [{"measurement": "percent Bodipy-positive cells", "setting": "[1]", "value": "27.6 ± 6.7", "unit": "%"}, {"measurement": "percent Bodipy-positive cells", "setting": "[2]", "value": "77.6 ± 2.5", "unit": "%"}]}, {"smiles": "COc1ccc(C(=O)c2ccc(C)cc2)c(O)c1", "values": [{"measurement": "percent Bodipy-positive cells", "setting": "[2]", "value": "41.2 ± 7.8", "unit": "%"}]}, {"smiles": "NC(=O)NC(=O)Cc1ccccc1", "note": "[Phenacemide]", "values": [{"measurement": "percent Bodipy-positive cells", "setting": "[2]", "value": "11.9 ± 1.1", "unit": "%"}]}, {"smiles": "CCCC[C@H](C)C[C@H](O)/C=C/[C@H]1[C@H](O)CC(=O)[C@@H]1CCCCC(CC(=O)O)OC", "note": "(some centres not stated) [3-methoxy Limaprost]", "values": [{"measurement": "percent Bodipy-positive cells", "setting": "[3]", "value": "8.26 ± 0.44", "unit": "%"}]}, {"smiles": "CC1(C)[C@H]2CC[C@]1(CS(=O)(=O)O)C(=O)C2=Cc1ccc(C=C2C(=O)[C@@]3(CS(=O)(=O)O)CC[C@@H]2C3(C)C)cc1", "values": [{"measurement": "percent Bodipy-positive cells", "setting": "[2]", "value": "51 ± 21", "unit": "%"}]}, {"smiles": "CC1CS(=O)(=O)CCN1/N=C/c1ccc([N+](=O)[O-])o1", "note": "(configuration not stated) [Nifurtimox]", "values": [{"measurement": "percent Bodipy-positive cells", "value": "8.14 ± 2.5", "unit": "%"}]}, {"smiles": "CNC(=O)Nc1ccc(-c2nc(N3CC4CCC(C3)O4)c3cnn(C4CCC5(CC4)OCCO5)c3n2)cc1", "values": [{"measurement": "percent Bodipy-positive cells", "setting": "[4]", "value": "5.49 ± 0.84", "unit": "%"}, {"measurement": "percent Bodipy-positive cells", "setting": "[5]", "value": "5.47 ± 0.38", "unit": "%"}, {"measurement": "percent Bodipy-positive cells", "setting": "[6]", "value": "11.8 ± 2.4", "unit": "%"}, {"measurement": "percent Bodipy-positive cells", "setting": "[1]", "value": "7.89 ± 3.7", "unit": "%"}, {"measurement": "percent Bodipy-positive cells", "setting": "[2]", "value": "72.5% and 71.2%"}]}, {"smiles": "CCCCC/C=C\\CC1OC1C/C=C\\C/C=C\\CCCC(=O)O", "note": "(configuration not stated)", "values": [{"measurement": "percent Bodipy-positive cells", "setting": "library stock concentration: 100 uM", "value": "11.1 ± 10", "unit": "%"}]}, {"smiles": "CC(CN(C)C)CN1c2ccccc2CCc2ccccc21.O=C(O)/C=C\\C(=O)O", "note": "(configuration not stated) [Trimipramine maleate]", "values": [{"measurement": "percent Bodipy-positive cells", "setting": "[2]", "value": "93.85 ± 0.59", "unit": "%"}]}, {"smiles": "CSc1nc(N)c2ncn([C@@H]3O[C@H](COP(=O)(O)OP(=O)(O)OP(=O)(O)O)[C@H](O)C3O)c2n1", "note": "(some centres not stated) [2-Methylthioadenosine triphosphate tetrasodium]", "values": [{"measurement": "percent Bodipy-positive cells", "setting": "[2]", "value": "38.86 ± 0.25", "unit": "%"}]}, {"smiles": "CCCCCCCCCCCC1N[C@H](C(=O)O)CS1", "note": "(some centres not stated)", "values": [{"measurement": "percent Bodipy-positive cells", "setting": "[3]", "value": "9.73 ± 1.7", "unit": "%"}]}, {"smiles": "CC(=O)C(C)=O", "note": "[2,3-Butanedione]", "values": [{"measurement": "percent Bodipy-positive cells", "setting": "[2]", "value": "29.3 ± 8.7", "unit": "%"}]}, {"smiles": "c1ccc2[nH]c(-c3cscn3)nc2c1", "note": "[Tiabendazole]", "values": [{"measurement": "percent Bodipy-positive cells", "value": "27.2 ± 1.2", "unit": "%"}]}, {"smiles": "c1ccc2[nH]c(-c3cscn3)nc2c1", "note": "[Thiabendazole]", "values": [{"measurement": "percent Bodipy-positive cells", "setting": "[1]", "value": "14.6 ± 1.7", "unit": "%"}, {"measurement": "percent Bodipy-positive cells", "setting": "library stock concentration: 9.9 mM", "value": "16.4 ± 2.7", "unit": "%"}]}, {"smiles": "c1ccc2[nH]c(-c3cscn3)nc2c1", "values": [{"measurement": "percent Bodipy-positive cells", "setting": "[2]", "value": "39.1 ± 8.9", "unit": "%"}]}, {"smiles": "Cn1cc(-c2ccc3nnc(C(F)(F)c4ccc5ncccc5c4)n3n2)cn1", "values": [{"measurement": "percent Bodipy-positive cells", "setting": "[4]", "value": "15.8 ± 12", "unit": "%"}, {"measurement": "percent Bodipy-positive cells", "setting": "[5]", "value": "14% and 16.5%"}, {"measurement": "percent Bodipy-positive cells", "setting": "[6]", "value": "8.29% and 21.2%"}, {"measurement": "percent Bodipy-positive cells", "setting": "[1]", "value": "9.27 ± 0.39", "unit": "%"}]}, {"smiles": "OC[C@@H](O)[C@@H](O[C@@H]1O[C@H](CO)[C@H](O)[C@H](O)[C@H]1O)[C@H](O)[C@@H](O)CO", "values": [{"measurement": "percent Bodipy-positive cells", "setting": "[2]", "value": "29.5 ± 3.1", "unit": "%"}]}, {"smiles": "CCC(CC)CC1(C(=O)Nc2ccccc2SC(=O)C(C)C)CCCCC1", "values": [{"measurement": "percent Bodipy-positive cells", "setting": "[1]", "value": "12.2 ± 4", "unit": "%"}, {"measurement": "percent Bodipy-positive cells", "setting": "[2]", "value": "22 ± 8.5", "unit": "%"}]}, {"smiles": "CN1[C@@H](CC(=O)c2ccccc2)CCC[C@H]1C[C@H](O)c1ccccc1", "note": "[Lobeline hydrochloride]", "values": [{"measurement": "percent Bodipy-positive cells", "setting": "[2]", "value": "19.8% and 26.9%"}]}, {"smiles": "CN1[C@@H](CC(=O)c2ccccc2)CCC[C@H]1C[C@H](O)c1ccccc1", "note": "[Lobeline]", "values": [{"measurement": "percent Bodipy-positive cells", "setting": "library stock concentration: 5.9 mM", "value": "12.5 ± 1.8", "unit": "%"}]}, {"smiles": "CN1[C@@H](CC(=O)c2ccccc2)CCC[C@H]1C[C@H](O)c1ccccc1", "values": [{"measurement": "percent Bodipy-positive cells", "setting": "[2]", "value": "28.2 ± 4.2", "unit": "%"}]}, {"smiles": "CN1[C@@H](CC(=O)c2ccccc2)CCC[C@H]1C[C@H](O)c1ccccc1", "note": "[alpha-Lobeline hydrochloride]", "values": [{"measurement": "percent Bodipy-positive cells", "setting": "[2]", "value": "64.6 ± 1.5", "unit": "%"}]}, {"smiles": "CN1[C@@H](CC(=O)c2ccccc2)CCC[C@H]1C[C@H](O)c1ccccc1", "note": "[Lobeline alpha (-) hydrochoride]", "values": [{"measurement": "percent Bodipy-positive cells", "value": "43.1 ± 0.79", "unit": "%"}]}, {"smiles": "Cc1c(C(=O)NN2CCOCC2)nn(-c2ccc(Cl)cc2Cl)c1-c1ccc(I)cc1", "values": [{"measurement": "percent Bodipy-positive cells", "setting": "[2]", "value": "18.6 ± 2.4", "unit": "%"}]}]}
